In publication PMC4626870:
Where a chain is given by its changes, count along the chain named. No constants are given. Whether binding was seen depends on the method and setting. In cells and extracts the contact can be indirect. Some binding calls cover weakened binding; strength is not graded here.

Protein sequences, listed by entry. Tags and fused reporters are not part of them.
UniProt D4AE59: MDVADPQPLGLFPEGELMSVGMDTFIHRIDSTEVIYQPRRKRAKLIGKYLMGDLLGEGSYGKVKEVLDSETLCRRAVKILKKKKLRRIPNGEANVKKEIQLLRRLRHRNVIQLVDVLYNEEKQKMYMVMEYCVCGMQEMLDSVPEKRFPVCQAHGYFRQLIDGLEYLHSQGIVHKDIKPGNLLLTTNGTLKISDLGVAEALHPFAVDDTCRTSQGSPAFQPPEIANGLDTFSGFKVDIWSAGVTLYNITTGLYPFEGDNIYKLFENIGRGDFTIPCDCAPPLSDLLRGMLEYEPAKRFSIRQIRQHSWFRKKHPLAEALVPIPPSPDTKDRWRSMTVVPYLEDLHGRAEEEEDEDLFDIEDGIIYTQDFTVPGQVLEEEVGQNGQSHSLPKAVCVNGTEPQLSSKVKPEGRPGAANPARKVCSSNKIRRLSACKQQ
UniProt P19785: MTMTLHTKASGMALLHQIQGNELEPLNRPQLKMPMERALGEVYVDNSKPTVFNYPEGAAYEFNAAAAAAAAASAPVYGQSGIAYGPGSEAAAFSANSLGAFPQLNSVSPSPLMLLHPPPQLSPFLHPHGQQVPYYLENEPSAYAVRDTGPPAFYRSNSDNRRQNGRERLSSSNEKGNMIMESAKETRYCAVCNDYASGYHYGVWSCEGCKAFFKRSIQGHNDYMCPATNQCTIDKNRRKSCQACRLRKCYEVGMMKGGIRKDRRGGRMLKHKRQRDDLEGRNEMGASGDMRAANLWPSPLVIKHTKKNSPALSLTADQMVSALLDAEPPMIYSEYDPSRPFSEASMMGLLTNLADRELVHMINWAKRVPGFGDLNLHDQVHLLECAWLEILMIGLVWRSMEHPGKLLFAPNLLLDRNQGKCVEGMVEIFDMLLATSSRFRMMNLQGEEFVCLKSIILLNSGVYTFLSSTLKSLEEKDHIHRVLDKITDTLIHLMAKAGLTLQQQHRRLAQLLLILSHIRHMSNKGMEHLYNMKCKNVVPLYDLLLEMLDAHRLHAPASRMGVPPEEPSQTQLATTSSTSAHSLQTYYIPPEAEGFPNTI
UniProt O08537: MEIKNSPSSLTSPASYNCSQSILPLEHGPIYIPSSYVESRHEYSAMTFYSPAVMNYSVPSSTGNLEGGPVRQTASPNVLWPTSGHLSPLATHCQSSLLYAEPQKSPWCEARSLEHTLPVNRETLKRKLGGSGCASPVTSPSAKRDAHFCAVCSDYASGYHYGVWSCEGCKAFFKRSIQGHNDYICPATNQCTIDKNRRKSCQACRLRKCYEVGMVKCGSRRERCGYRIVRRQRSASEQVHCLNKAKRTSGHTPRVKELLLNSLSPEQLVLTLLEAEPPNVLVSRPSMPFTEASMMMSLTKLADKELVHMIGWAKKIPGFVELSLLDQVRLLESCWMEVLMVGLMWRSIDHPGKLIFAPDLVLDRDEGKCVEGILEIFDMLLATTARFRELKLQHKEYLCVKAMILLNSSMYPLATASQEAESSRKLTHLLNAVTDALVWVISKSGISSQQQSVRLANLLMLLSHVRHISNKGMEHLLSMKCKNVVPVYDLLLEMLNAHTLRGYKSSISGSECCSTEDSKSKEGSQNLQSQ
UniProt P06211: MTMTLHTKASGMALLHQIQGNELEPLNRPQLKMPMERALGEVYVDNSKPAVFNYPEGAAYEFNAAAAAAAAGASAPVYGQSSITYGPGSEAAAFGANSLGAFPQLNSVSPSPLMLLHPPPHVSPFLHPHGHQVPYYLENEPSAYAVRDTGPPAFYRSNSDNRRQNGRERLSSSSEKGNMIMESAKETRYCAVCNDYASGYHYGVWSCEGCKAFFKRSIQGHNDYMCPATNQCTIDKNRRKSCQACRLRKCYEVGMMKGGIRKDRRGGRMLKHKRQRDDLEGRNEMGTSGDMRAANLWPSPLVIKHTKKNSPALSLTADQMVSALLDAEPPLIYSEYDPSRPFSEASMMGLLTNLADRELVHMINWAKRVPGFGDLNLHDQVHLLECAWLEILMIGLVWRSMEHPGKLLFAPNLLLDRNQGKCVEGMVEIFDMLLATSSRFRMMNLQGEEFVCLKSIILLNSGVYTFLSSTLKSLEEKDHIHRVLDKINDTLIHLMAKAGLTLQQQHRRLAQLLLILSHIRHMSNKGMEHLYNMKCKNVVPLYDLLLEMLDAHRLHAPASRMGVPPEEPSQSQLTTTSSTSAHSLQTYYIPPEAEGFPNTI
UniProt Q62986: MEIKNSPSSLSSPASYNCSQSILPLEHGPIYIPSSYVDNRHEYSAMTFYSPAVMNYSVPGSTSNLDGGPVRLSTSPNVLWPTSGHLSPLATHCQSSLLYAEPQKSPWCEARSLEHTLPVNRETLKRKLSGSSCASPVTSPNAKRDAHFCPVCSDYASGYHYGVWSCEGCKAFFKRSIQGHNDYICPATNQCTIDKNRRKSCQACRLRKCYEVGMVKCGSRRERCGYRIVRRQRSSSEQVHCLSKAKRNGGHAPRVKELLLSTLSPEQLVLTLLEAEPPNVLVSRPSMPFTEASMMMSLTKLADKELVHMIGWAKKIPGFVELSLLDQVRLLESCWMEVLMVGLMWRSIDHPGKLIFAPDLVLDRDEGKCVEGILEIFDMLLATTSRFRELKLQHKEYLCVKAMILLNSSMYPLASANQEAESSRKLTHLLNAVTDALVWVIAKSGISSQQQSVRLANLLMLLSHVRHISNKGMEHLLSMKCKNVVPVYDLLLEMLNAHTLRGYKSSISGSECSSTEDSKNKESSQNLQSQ

B1: LKB1, endogenous in C2C12 cells (enzyme, UniProt Q9WTK7 1-436)
chain: MDVADPEPLGLFSEGELMSVGMDTFIHRIDSTEVIYQPRRKRAKLIGKYLMGDLLGEGSYGKVKEVLDSETLCRRAVKILKKKKLRRIPNGEANVKKEIQLLRRLRHRNVIQLVDVLYNEEKQKMYMVMEYCVCGMQEMLDSVPEKRFPVCQAHGYFRQLIDGLEYLHSQGIVHKDIKPGNLLLTTNGTLKISDLGVAEALHPFAVDDTCRTSQGSPAFQPPEIANGLDTFSGFKVDIWSAGVTLYNITTGLYPFEGDNIYKLFENIGRGDFTIPCDCGPPLSDLLRGMLEYEPAKRFSIRQIRQHSWFRKKHPLAEALVPIPPSPDTKDRWRSMTVVPYLEDLHGRAEEEEEEDLFDIEDGIIYTQDFTVPGQVLEEEVGQNGQSHSLPKAVCVNGTEPQLSSKVKPEGRPGTANPARKVCSSNKIRRLSACKQQ
B2: LKB1, endogenous in neonatal rat cardiomyocytes (enzyme, UniProt D4AE59 1-436)
chain: B1 chain with E7Q, S13P, G279A, E353D, T414A

Tests used:
[1] = biological target: oestrogen receptor α (ERα), endogenous in C2C12 cells (mouse (endogenous in C2C12)) (UniProt P19785); assay: co-IP; C2C12 lysates after 1-h treatment with E2 (10 μM); ER antibody coated columns; eluates blotted
[2] = biological target: oestrogen receptor β (ERβ), endogenous in C2C12 cells (mouse (endogenous in C2C12)) (UniProt O08537); assay: as above
[3] = biological target: oestrogen receptor α (ERα), endogenous in neonatal rat cardiomyocytes (rat (endogenous in NRCM)) (UniProt P06211); assay: co-IP; NRCM lysates after 1-h treatment with E2 (10 μM); ER antibody coated columns; eluates blotted
[4] = biological target: oestrogen receptor β (ERβ), endogenous in neonatal rat cardiomyocytes (rat (endogenous in NRCM)) (UniProt Q62986); assay: as above

Row | binding [1] | binding [2] | binding [3] | binding [4] | Binder
1 | binds | binds | – | – | B1
2 | – | – | binds | binds | B2
